{"sequences": {"note": "Chains of the proteins cited; added tags and fusions are not shown.", "UniProt E9Q4K7": "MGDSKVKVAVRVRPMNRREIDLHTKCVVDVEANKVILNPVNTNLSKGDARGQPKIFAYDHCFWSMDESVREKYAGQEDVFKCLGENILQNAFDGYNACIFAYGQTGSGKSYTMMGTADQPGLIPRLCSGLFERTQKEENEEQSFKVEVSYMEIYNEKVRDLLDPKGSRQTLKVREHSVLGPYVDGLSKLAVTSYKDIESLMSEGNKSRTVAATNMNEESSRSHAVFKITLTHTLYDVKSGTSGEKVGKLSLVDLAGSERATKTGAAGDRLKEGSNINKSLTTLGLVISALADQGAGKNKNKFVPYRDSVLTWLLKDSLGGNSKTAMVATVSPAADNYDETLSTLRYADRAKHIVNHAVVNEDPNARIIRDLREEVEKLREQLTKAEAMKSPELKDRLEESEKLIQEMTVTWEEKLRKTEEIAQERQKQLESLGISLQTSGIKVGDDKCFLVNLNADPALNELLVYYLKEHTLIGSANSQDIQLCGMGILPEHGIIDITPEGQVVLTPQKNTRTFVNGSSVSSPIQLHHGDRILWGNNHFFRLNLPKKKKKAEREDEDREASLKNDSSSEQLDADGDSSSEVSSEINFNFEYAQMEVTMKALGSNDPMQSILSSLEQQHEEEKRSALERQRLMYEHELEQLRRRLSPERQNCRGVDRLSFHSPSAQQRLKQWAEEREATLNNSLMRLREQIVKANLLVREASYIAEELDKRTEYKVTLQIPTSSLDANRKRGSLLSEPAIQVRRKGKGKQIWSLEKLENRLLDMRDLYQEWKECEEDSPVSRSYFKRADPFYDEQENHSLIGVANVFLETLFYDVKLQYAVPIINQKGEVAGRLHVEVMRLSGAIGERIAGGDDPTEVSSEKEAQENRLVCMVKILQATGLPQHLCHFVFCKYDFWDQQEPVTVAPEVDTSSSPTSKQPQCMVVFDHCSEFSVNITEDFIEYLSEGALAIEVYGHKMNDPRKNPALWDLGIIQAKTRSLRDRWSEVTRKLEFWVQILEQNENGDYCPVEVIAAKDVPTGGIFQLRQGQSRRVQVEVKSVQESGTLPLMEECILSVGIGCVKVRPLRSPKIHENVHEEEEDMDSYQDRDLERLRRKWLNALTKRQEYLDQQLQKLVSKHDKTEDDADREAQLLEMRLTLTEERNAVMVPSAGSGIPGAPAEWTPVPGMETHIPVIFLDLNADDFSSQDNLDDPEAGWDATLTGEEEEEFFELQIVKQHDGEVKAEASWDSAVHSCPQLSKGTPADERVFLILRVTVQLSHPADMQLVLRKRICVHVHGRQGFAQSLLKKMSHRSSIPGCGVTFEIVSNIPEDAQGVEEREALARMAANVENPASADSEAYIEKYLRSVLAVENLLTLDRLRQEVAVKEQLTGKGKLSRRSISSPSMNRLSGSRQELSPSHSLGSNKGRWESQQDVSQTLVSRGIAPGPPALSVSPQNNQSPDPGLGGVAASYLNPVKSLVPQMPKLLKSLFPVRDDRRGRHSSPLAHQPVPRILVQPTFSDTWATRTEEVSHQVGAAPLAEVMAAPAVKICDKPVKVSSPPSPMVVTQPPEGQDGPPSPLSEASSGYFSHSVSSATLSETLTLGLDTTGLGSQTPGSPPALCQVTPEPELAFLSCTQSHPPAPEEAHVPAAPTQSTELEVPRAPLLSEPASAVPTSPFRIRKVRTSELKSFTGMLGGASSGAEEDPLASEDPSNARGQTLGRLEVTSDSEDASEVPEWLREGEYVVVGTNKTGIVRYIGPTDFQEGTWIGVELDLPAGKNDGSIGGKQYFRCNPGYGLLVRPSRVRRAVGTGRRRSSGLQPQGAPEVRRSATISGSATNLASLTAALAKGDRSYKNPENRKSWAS"}, "source": "paper PMC11479884", "binders": {"B1": {"name": "Golgi vesicle transporter protein P115 (protein, UniProt Q9Z1Z0 1-959)", "chain": "MNFLRGVMGGQSAGPQHTEAETIQKLCDRVASSTLLDDRRNAVRALKSLSKKYRLEVGIQAMEHLIHVLQTDRSDSEIIAYALDTLYNIISNDEEEELEENSTRQSEDLGSQFTEIFIKQPENVTLLLSLLEEFDFHVRWPGVRLLTSLLKQLGPPVQQIILVSPMGVSRLMDLLADSREIIRNDGVLLLQALTRSNGAIQKIVAFENAFERLLDIITEEGNSDGGIVVEDCLILLQNLLKTNNSNQNFFKEGSYIQRMKPWFEVGEENSGWSAQKVTNLHLMLQLVRVLVSPTNPPGATSSCQKAMFQCGLLQQLCTILMATGIPADILTETINTVSEVIRGCQVNQDYFASVNAPSNPPRPAIVVLLMSMVNERQPFVLRCAVLYCFQCFLYKNEKGQGEIVATLLPSTIDATGNSVSAGQLLCGGLFSTDSLSNWCAAVALAHALQGNATQKEQLLRVQLATSIGNPPVSLLQQCTNILSQGSKIQTRVGLLMLLCTWLSNCPIAVTHFLHNSANVPFLTGQIAENLGEEEQLVQGLCALLLGISIYFNDNSLENYTKEKLKQLIEKRIGKENFIEKLGFISKHELYSRASQKPQPNFPSPEYMIFDHEFTKLVKELEGVITKAIYKSSEEDKKEEEVKKTLEQHDNIVTHYKNMIREQDLQLEELKQQVSTLKCQNEQLQTAVTQQASQIQQHKDQYNLLKVQLGKDNHHQGSHGDGAQVNGIQPEEISRLREEIEELKSQQALLQGQLAEKDSLIENLKSSQASGMSEQASATCPPRDPEQVAELKQELTALKSQLCSQSLEITRLQTENCELLQRAETLAKSVPVEGESEHVSAAKTTDVEGRLSALLQETKELKNEIKALSEERTAIQKQLDSSNSTIAILQTEKDKLDLEVTDSKKEQDDLLVLLADQDQKILSLKSKLKDLGHPVEEEDESGDQEDDDDEIDDGDKDQDI"}}, "molecular_target": "KIF13B, a kinesin protein (mouse (endogenous in primary keratinocytes)) (UniProt E9Q4K7)", "experiment": "co-IP; anti-KIF13B antibody (or anti-IgG antibody) on protein A-G magnetic beads, 4°C overnight; cell lysates (1 mg of protein) of SLIGRL-treated primary keratinocytes of WT or Par2-/- mice, room temperature 2 hours; blot with anti-P115 antibody", "note": "Results are given in words; binding and its absence hold for the method and conditions named. In cells and extracts the contact can be indirect. Some entries that bind do so weakly or less than the wild type.", "data": [{"binder": "B1", "values": [{"measurement": "binding", "value": "binds"}]}]}
